# Laboratory results: PubChem BioAssay AID445 (National Center for Advancing Translational Sciences (NCATS), 2006)
# The other results are listed elsewhere or left out. These are further read-outs of the screen, such as a control signal, another cell line or another target. No call is given for them. Compounds called inactive in the main read-out are mostly missing here. The note in brackets gives the kind of curve behind each potency; many fits are weak.
# Test: IkB Signaling
# Conditions: ABC-DLBCL IkBa-CBG/CBR dual luciferase ratio (green luciferase fused to IkBa over red control in OCI-Ly3 lymphoma cells), 4 h
# Procedure, shortened: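 Curves were fitted separately to fusion (green), unfused (red) and ratio luminescence, then classed by r2, magnitude and activity. Cells: OCI-Ly3, 4 h compound plus doxycycline at 37C; 10 uM MG-132 defined full response.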
# [1] = measured here: control luc red channel unless noted
structure (smiles),measurement,setting,value
O=C(Nc1cccc(F)c1)c1cccc2c1C(=O)N(C1CCCCC1)C2,AC50,[1],"39.8 µM [falling, single point]"
Cc1ccc(Cl)cc1N1CCN(CCCNC(=O)c2nnc(Cc3cccc(Cl)c3)o2)CC1,AC50,[1],"7.94 µM [falling, partial curve]"
O=C(Cn1cc(C(=O)C2CC2)c2ccccc21)Nc1ccc(Br)cc1,AC50,[1],"0.631 µM [falling, full curve]"
CCC1CCCCN1CCCNC(=O)c1ccc2c(c1)N(Cc1ccc(Cl)cc1)C(=O)c1ccccc1S2(=O)=O (stereo not drawn),AC50,[1],"20 µM [falling, partial curve, poor fit]"
c1ccc(CSc2nnc3c(n2)OC(c2ccco2)Nc2ccccc2-3)cc1 (stereo not drawn),AC50,[1],"10 µM [falling, partial curve]"
COc1ccc(-c2cc(N)n(S(=O)(=O)c3c(F)c(F)c(F)c(F)c3F)n2)cc1OC,AC50,measured here: IkB-luc green channel,"5.01 µM [rising, single point]"
same,AC50,measured here: control luc red channel,"25.1 µM [falling, partial curve]"
COCCOC(=O)c1c(C)oc2ccc(OC(=O)c3c(OC)cccc3OC)cc12,AC50,[1],"7.94 µM [falling, full curve, poor fit]"
COc1ccc(C2c3sc(=O)[nH]c3SC3C4CCC(C4)C23)cc1 (stereo not drawn),AC50,[1],"39.8 µM [falling, single point]"
Nc1ccc2oc(CCc3ccccc3)nc2c1,AC50,[1],"10 µM [falling, partial curve]"
CC(=O)c1ccc(NC(=O)CCCc2nc(-c3cccc(C)c3)no2)cc1,AC50,[1],"12.6 µM [falling, partial curve]"
O=C(CC1C(=O)N(c2ccccc2)C(=O)N1Cc1ccc2c(c1)OCO2)Nc1ccccc1 (stereo not drawn),AC50,[1],"39.8 µM [falling, single point]"
Cc1ccc(-c2cc3c(n2-c2ccccc2F)CC(C)(C)CC3=O)cc1,AC50,[1],"0.316 µM [falling, full curve, poor fit]"
CCOC(=O)c1ccc(CN(Cc2ccccc2C)S(=O)(=O)c2ccc(F)c(C(=O)Nc3cccc(OC)c3)c2)cc1,AC50,[1],"3.16 µM [falling, full curve, poor fit]"
CCOC(=O)c1cnc2ccc(C)cc2c1NCCc1ccc(OC)c(OC)c1,AC50,[1],"20 µM [falling, single point]"
O=C(CN(CCc1ccccc1)S(=O)(=O)c1ccccc1)NCc1ccc(Cl)cc1,AC50,[1],"15.8 µM [falling, partial curve]"
COc1cc(CNc2ccc3c(c2)ncn3C(C)C)cc(OC)c1OC,AC50,[1],"0.0316 µM [falling, full curve, poor fit]"
Cc1ccc(Cl)cc1N1CCN(C(=O)c2cc(S(=O)(=O)N3CCCCCC3)cn2C)CC1,AC50,[1],"10 µM [falling, partial curve]"

# Fetched one by one from the entries so far (2):
structure (smiles),measurement,setting,value
CC(=O)c1ccc(NC(=O)CCCc2nc(-c3cccc(C)c3)no2)cc1,AC50,[1],"12.6 µM [falling, partial curve]"
O=C(CC1C(=O)N(c2ccccc2)C(=O)N1Cc1ccc2c(c1)OCO2)Nc1ccccc1 (stereo not drawn),AC50,[1],"39.8 µM [falling, single point]"
